{"source": "PubChem BioAssay AID1347076", "about": "(National Center for Advancing Translational Sciences (NCATS), 2019)", "note": "Out of some 400,000 compounds screened, about 13,000 (3.2%) were called active. Inconclusive results, whose numbers are uncertain, are shown with a selection of clear calls. Calls come from the whole dose curve; as a rule, active = well fitted cell-killing curve with a large enough effect; inconclusive = small, poorly fitted or top-dose-only effect, or effect the other way; inactive = flat fitted curve, though single readings scatter. A potency beside an inconclusive call is a rough fit, not a confirmed value. % is set by controls: 0 for no effect and ±100 for the full control effect; potency is the fitted concentration of half-maximal effect."}
{"experiment": "qHTS assay for MDR1-selective chemotherapeutics: Primary screen using the drug-selected MDR subline cells KB-V1; note: nearly all actives have a fitted effect of over 60% in size", "conditions": "KB-V1 MDR cells viability, CellTiter-Glo, 72 h; activity change, negative = cytotoxicity: at 46.1 µM (top of the series)", "method_in_brief": "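Drug-selected KB-V1 cells, grown in DMEM lacking phenol red with 10% FBS, receive compound titrations; after three days at 37 degrees C, surviving cell ATP is quantified by CellTiter-Glo luminescence and responses normalized and curve-fitted.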"}
{"smiles": "O=C(NC(=S)NC1CC1)c1cccnc1", "Potency": "inactive"}
{"smiles": "CC(C)(C)c1ccc(C(=O)N/C(N)=N/c2nc3ccccc3o2)cc1", "Potency": "inactive"}
{"smiles": "CCOC(=O)c1ccc2c(c1)n(CCCS(=O)(=O)[O-])c(/C=C/c1ccc(Cl)cc1)[n+]2CC", "Potency": "inconclusive: 11.6 µM [rising, partial curve, poor fit]"}
{"smiles": "CCCCn1c(N)c(N(CC(C)C)C(=O)CSc2nnc(C)n2-c2ccccc2)c(=O)[nH]c1=O", "Potency": "inconclusive: 29.1 µM [rising, single point]"}
{"smiles": "N#Cc1cnn2c(-c3cccc(C(F)(F)F)c3)ccnc12", "Potency": "inactive"}
{"smiles": "CC1=C/C(=N\\NC(=O)c2ccccc2)CC1", "Potency": "inactive"}
{"smiles": "O=C(C(O)c1ccccc1)N1CCN(S(=O)(=O)c2ccc(OC(F)(F)F)cc2)CC1", "note": "(stereo not drawn)", "Potency": "inconclusive: 23.1 µM [cytotoxic, partial curve, poor fit]"}
{"smiles": "O=C(NC(CC(=O)N1CCCC(C(F)(F)F)C1)c1ccccc1)c1ccccc1Cl", "note": "(stereo not drawn)", "Potency": "inconclusive: 2.59 µM [cytotoxic, full curve, poor fit]"}
{"smiles": "Cc1ccc(S(=O)(=O)CCC(=O)OC(C)C(=O)NC2CCCCC2C)cc1", "note": "(stereo not drawn)", "Potency": "inconclusive: 23.1 µM [cytotoxic, single point]"}
{"smiles": "CCn1c(=O)oc2cc(NC(=O)CCl)ccc21", "Potency": "inconclusive: 29.1 µM [cytotoxic, single point]"}
{"smiles": "CCOc1ccc(OCC)c(NC(=O)CN2CCN(c3cccc(C)c3)C(C)C2)c1", "note": "(stereo not drawn)", "Potency": "inconclusive: 29.1 µM [cytotoxic, single point]"}
{"smiles": "Cc1ccc(Cl)c2c1N[C@@H](c1ccc(C(=O)O)cc1)[C@H]1CC=C[C@@H]21", "Potency": "inconclusive: 18.4 µM [rising, single point]"}
{"smiles": "Cc1[nH]n(-c2ccccc2)c(=O)c1C(=O)c1ccc(Cl)cc1", "Potency": "active: 10.3 µM"}
{"smiles": "COc1ccccc1CN(C)CC(=O)Nc1cccc(S(=O)(=O)N2CCCC2)c1", "Potency": "inconclusive: 9.2 µM [cytotoxic, partial curve]"}
{"smiles": "CCc1ccc(S(=O)(=O)c2nnn3c2nc(N2CCC(C)CC2)c2cc(Cl)ccc23)cc1", "Potency": "inconclusive: 29.1 µM [cytotoxic, single point]"}
{"smiles": "Cc1cccc(OCC(=O)Nc2c(C)ccc3nsnc23)c1C", "Potency": "inconclusive: 0.58 µM [rising, partial curve, poor fit]"}
{"smiles": "CCCN(CCC)CC(O)CN1C(=O)N(CN2C(=O)N(CC(O)CN(CCC)CCC)C(=O)C2(C)C)C(C)(C)C1=O", "note": "(stereo not drawn)", "Potency": "inconclusive: 20.6 µM [rising, partial curve]"}
{"smiles": "CCOc1ccc(-c2nc(CSCC(=O)N3CCN(c4cccc(C(F)(F)F)c4)CC3)c(C)o2)cc1", "Potency": "active: 18.4 µM"}
{"smiles": "Cc1ccc([N+](=O)[O-])cc1NC(=O)CN1CCC(C)CC1", "Potency": "inconclusive: 29.1 µM [cytotoxic, single point]"}
{"smiles": "CNc1cc(C(=O)O)nc2ccccc12", "Potency": "inactive"}
{"smiles": "O=C(CSc1ncc(S(=O)(=O)c2ccc(Br)cc2)c(=O)[nH]1)NCc1ccc(Cl)cc1", "Potency": "inactive"}
{"smiles": "O=C(CSc1nc2ccccc2c(=O)n1-c1ccccc1)N/N=C/C=C/c1ccccc1[N+](=O)[O-]", "Potency": "inactive"}
{"smiles": "COc1ccc(/C=N/NC(=O)c2cc(-c3cccn3C)n[nH]2)cc1OC", "Potency": "inactive"}
{"smiles": "C1=C2C[N+]3(CCCC3)CC2Cc2ccc3ccccc3c21", "note": "(stereo not drawn)", "Potency": "inconclusive: 29.1 µM [rising, single point]"}
{"smiles": "CCN(C(=S)Nc1cccc2ccccc12)c1ccccc1", "Potency": "inactive"}
{"smiles": "CC(C)(C)N1C(=O)[C@H]2[C@@H](c3ccc(Br)cc3)N3C(=O)N(c4cccc(Cl)c4)C(=O)[C@@]3(C)[C@H]2C1=O", "Potency": "inconclusive: 29.1 µM [rising, single point]"}
{"smiles": "COc1ccc(NCC(O)COc2ccc(C(C)(C)C)cc2)cc1", "note": "(stereo not drawn)", "Potency": "inconclusive: 20.6 µM [cytotoxic, partial curve]"}
{"smiles": "COc1ccc(N2CCN(C(=O)c3cccc(N4C(=O)C5CC=CC(C)C5C4=O)c3)CC2)cc1", "note": "(stereo not drawn)", "Potency": "active: 18.4 µM"}
{"smiles": "COc1ccc(C(=O)C(OC(=O)c2ccccc2)c2ccccc2)cc1", "note": "(stereo not drawn)", "Potency": "active: 13 µM"}
{"smiles": "CCOc1ccc(NS(=O)(=O)c2ccc(NC(=S)NC(C)=O)cc2)cc1", "Potency": "inactive"}
{"smiles": "Cc1ccc(OCCn2c(Br)nc3c2c(=O)n(C)c(=O)n3C)cc1", "Potency": "inconclusive: 5.8 µM [cytotoxic, partial curve]"}
{"smiles": "Nc1ccccc1C(=O)/C=C/c1ccc2c(c1)OCO2", "Potency": "inconclusive: 29.1 µM [cytotoxic, single point]"}
{"smiles": "CCOc1ccccc1/C=N/NC(=O)c1nnn(-c2nonc2N)c1CN1CCCCCC1", "Potency": "inconclusive: 1.64 µM [rising, partial curve]"}
{"smiles": "O=C(Nc1ccc(F)c(F)c1)c1ccc2c(c1)OCO2", "Potency": "inconclusive: 18.4 µM [cytotoxic, single point]"}
{"smiles": "N#C/C(=C\\c1cn(-c2ccccc2)nc1-c1cc2ccccc2o1)c1nc2ccccc2[nH]1", "Potency": "inconclusive: 0.517 µM [cytotoxic, full curve]"}
{"smiles": "CC[C@@H]1CC2=C(C(=O)OC(C)(C)O2)[C@H](c2ccc(Cl)cc2)O1", "Potency": "inactive"}
{"smiles": "CC(C)[C@H](NS(=O)(=O)c1ccccc1)C(=O)OCC(=O)N1N=C(c2ccc(Cl)cc2)CC1c1ccco1", "note": "(stereo partly drawn)", "Potency": "inconclusive: 23.1 µM [cytotoxic, single point]"}
{"smiles": "CCOc1ccc2c(c1)-c1c(ssc1=S)C(C)(C)N2C(=O)CSC1=NCCS1", "Potency": "active: 8.2 µM"}
{"smiles": "CCCCN1C(=O)C(O)=C(C(C)=O)C1c1ccccc1", "note": "(stereo not drawn)", "Potency": "inactive"}
{"smiles": "COc1ccc(Cl)cc1NC(=O)CN(C)C(=O)C1CCN(C(=O)Nc2ccccc2)CC1", "Potency": "inconclusive: 16.4 µM [cytotoxic, partial curve]"}
{"smiles": "CC(/C=N/N1CCN(c2ccccc2)CC1)=C\\c1ccccc1", "Potency": "inactive"}
{"smiles": "O=C(NCc1cccs1)C1Cc2c(-c3ccc(Cl)cc3)ccnc2O1", "note": "(stereo not drawn)", "Potency": "inconclusive: 6.51 µM [cytotoxic, full curve]"}
{"smiles": "CC(=O)Nc1cn(-c2ccccc2)nc1-c1ccccc1", "Potency": "inactive"}
{"smiles": "Cc1cccn2c(=O)c3cc(C(=O)NCC4CCCO4)c(=N)n(CCc4ccccc4)c3nc12", "note": "(stereo not drawn)", "Potency": "inactive"}
{"smiles": "CC1(C)CC(=O)/C(=C(\\O)c2ccccc2)C(=NCCc2ccccc2)C1", "Potency": "active: 5.8 µM"}
{"smiles": "COc1cccc(CNC(=O)c2ccc(CSc3nc4ccncc4n3Cc3cccc(C)c3)cc2)c1", "Potency": "inconclusive: 0.13 µM [rising, full curve, poor fit]"}
{"smiles": "COc1cccc(OC)c1OCCCCN1CCC(Cc2ccccc2)CC1", "Potency": "inconclusive: 4.11 µM [cytotoxic, partial curve]"}
{"smiles": "Cc1ccc(S(=O)(=O)Nc2ccc(-n3c(C)nc4ccccc4c3=O)cc2)cc1", "Potency": "inconclusive: 10.3 µM [cytotoxic, partial curve, poor fit]"}
{"smiles": "CCOC(=O)c1c(C)[nH]c(C(=O)OCCOc2ccccc2C)c1C", "Potency": "inconclusive: 23.1 µM [cytotoxic, single point]"}
{"smiles": "CCN(CC(=O)NCc1ccc(F)cc1)C(=O)/C=C/c1cccs1", "Potency": "inconclusive: 18.4 µM [cytotoxic, single point]"}
{"smiles": "Cc1noc(C)c1COc1ccccc1C(=O)N(C)CC(=O)Nc1ccc(Cl)c(Cl)c1", "Potency": "inconclusive: 8.2 µM [cytotoxic, partial curve]"}
{"smiles": "COc1ccc(/C=C/C(=O)c2ccc(NC(=O)c3cccs3)cc2)cc1OC", "Potency": "active: 20.6 µM"}
{"smiles": "Cc1ccc(Cl)cc1N1CCN(S(=O)(=O)c2ccc3[nH]c4c(c3c2)CCCCC4)CC1", "Potency": "inconclusive: 25.9 µM [cytotoxic, single point]"}
{"smiles": "Cc1c(C(=O)N2CCCCC2C)sc2ncnc(N3CCc4ccccc4C3)c12", "note": "(stereo not drawn)", "Potency": "inconclusive: 9.2 µM [cytotoxic, partial curve]"}
{"smiles": "CN(C(=O)CC(NC(=O)c1ccccc1)(c1ccccc1)c1ccccc1)c1ccccc1", "Potency": "active: 10.3 µM"}
{"smiles": "Cc1ccc(S(=O)(=O)NCCN2CCOCC2)c(C)c1C", "Potency": "inconclusive: 29.1 µM [rising, single point]"}
{"smiles": "CC(C)OP(=O)(OC(C)C)C(O)c1ccc(N(C)C)cc1", "note": "(stereo not drawn)", "Potency": "inconclusive: 25.9 µM [rising, single point]"}
{"smiles": "O=C(Nc1ccon1)c1cccc(S(=O)(=O)N2CCCCCC2)c1", "Potency": "inconclusive: 29.1 µM [cytotoxic, single point]"}
{"smiles": "COc1ccc(NC(=O)CC2C(=O)N(c3ccc(Cl)cc3)C(=S)N2CCc2ccccn2)cc1", "note": "(stereo not drawn)", "Potency": "inconclusive: 25.9 µM [cytotoxic, partial curve, poor fit]"}
{"smiles": "Cc1ccc2c(c1)-c1nc(-c3ccc(Cl)cc3)cc(-c3coc4ccccc4c3=O)c1CO2", "Potency": "inactive"}
{"smiles": "CCCCCN(CCCCC)c1ccc(/C=C/c2ccnc3ccccc23)cc1", "Potency": "inconclusive: 29.1 µM [rising, single point]"}
{"smiles": "Cc1ccc(-c2csc3nc4cc(C(=O)NC5CCC(O)CC5)ccc4c(=O)n23)cc1", "note": "(stereo not drawn)", "activity change, negative = cytotoxicity": "inconclusive: -8.62%"}
{"smiles": "CCCCNC(=O)c1cccc2c(=O)c(C)c(-c3ccccc3)oc12", "Potency": "inconclusive: 3.66 µM [cytotoxic, partial curve]"}
{"smiles": "O=C(COC(=O)c1cc(-c2cccc3ccccc23)nc2ccccc12)NC1CCS(=O)(=O)C1", "note": "(stereo not drawn)", "Potency": "inactive"}
{"smiles": "O=[N+]([O-])c1cc(S(=O)(=O)Nc2cccc(C(F)(F)F)c2)ccc1-n1nnc2ccccc21", "Potency": "inconclusive: 23.1 µM [cytotoxic, single point]"}
{"smiles": "C[C@@H]1[C@H](O)C[C@@]23COC(=O)C2=CCC[C@@H]3[C@@]1(C)CC/C(=C/CO)CO", "Potency": "inactive"}
{"smiles": "CN(C)c1ccc(/C=C/c2ccc3ccccc3[n+]2C)cc1", "Potency": "inconclusive: 13 µM [cytotoxic, partial curve]"}
{"smiles": "O=C(Nc1ccc2nc(-c3ccc4nc[nH]c4c3)[nH]c2c1)c1cccs1", "Potency": "inactive"}
